From patent publication US20080194406A1, “METHOD FOR TREATING AGRICULTURAL CROPS USING MATERIALS ASSOCIATED WITH TUBULAR CARRIERS” (NaturalNano, Inc., priority 2005, published 2008)
At least one structure is not confirmed: it was looked up by name or label, or the drawing left a doubt.

Assay: release profiles of drugs from halloysite tubule compositions, relative to total release amounts (FIGS. 4 and 5)
Format: physicochemical
Conditions: release from mineral-derived tubule composition relative to total release amount; FIG. 4 (Tetracycline), FIG. 5 (Khellin)

## CN(C)[C@@H]1C(O)=C(C(N)=O)C(=O)[C@@]2(O)C(O)=C3C(=O)c4c(O)cccc4[C@@](C)(O)[C@H]3C[C@@H]12 [Tetracycline]
  release profile extends for: several hours
